No constants are given. Whether binding was seen depends on the method and setting. In cells and extracts the contact can be indirect. Some entries that bind do so weakly or less than the wild type.
How the values were obtained:
[1] = target: 3XFLAG-ZAPL N658A (human) (UniProt Q7Z2W4); experiment: co-IP; ZAP KO HEK293T co-transfected with 3XFLAG-ZAPL and myc-TRIM25; lysis in FLAG buffer (100mM Tris HCl pH8.0, 150mM NaCl, 5mM EDTA, 5% glycerol, 0.1% NP-40, 1mM DTT); FLAG beads 45 min at 4°C; immunoblot
[2] = target: 3XFLAG-ZAPL wild-type (zinc finger antiviral protein, long isoform) (human) (UniProt Q7Z2W4); experiment: as above

The chains behind the UniProt entries cited, without tags or fusion partners. Where a name states a change or a piece, a line headed by the entry shows the natural chain unless it says otherwise.
UniProt Q7Z2W4: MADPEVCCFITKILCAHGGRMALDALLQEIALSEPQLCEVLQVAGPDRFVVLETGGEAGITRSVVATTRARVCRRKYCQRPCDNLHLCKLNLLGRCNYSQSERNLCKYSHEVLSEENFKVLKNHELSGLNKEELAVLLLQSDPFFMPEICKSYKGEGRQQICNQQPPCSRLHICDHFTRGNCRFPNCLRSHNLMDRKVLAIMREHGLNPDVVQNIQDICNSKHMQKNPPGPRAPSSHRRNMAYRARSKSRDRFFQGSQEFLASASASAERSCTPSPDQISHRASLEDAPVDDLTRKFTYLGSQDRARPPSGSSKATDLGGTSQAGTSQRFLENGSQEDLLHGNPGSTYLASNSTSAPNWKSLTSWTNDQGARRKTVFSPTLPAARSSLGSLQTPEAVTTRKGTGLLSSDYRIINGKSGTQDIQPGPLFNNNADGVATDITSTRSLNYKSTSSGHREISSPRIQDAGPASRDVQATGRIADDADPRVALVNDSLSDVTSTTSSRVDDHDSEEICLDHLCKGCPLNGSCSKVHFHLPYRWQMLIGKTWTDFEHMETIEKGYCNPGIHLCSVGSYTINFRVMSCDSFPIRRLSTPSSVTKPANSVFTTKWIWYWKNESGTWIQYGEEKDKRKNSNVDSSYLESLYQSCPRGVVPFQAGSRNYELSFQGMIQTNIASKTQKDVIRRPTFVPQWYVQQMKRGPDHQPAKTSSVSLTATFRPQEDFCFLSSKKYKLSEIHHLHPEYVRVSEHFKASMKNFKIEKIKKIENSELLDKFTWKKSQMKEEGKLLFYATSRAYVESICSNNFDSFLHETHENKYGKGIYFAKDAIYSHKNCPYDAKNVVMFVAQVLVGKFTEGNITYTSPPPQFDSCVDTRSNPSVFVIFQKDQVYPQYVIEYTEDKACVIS
UniProt Q14258: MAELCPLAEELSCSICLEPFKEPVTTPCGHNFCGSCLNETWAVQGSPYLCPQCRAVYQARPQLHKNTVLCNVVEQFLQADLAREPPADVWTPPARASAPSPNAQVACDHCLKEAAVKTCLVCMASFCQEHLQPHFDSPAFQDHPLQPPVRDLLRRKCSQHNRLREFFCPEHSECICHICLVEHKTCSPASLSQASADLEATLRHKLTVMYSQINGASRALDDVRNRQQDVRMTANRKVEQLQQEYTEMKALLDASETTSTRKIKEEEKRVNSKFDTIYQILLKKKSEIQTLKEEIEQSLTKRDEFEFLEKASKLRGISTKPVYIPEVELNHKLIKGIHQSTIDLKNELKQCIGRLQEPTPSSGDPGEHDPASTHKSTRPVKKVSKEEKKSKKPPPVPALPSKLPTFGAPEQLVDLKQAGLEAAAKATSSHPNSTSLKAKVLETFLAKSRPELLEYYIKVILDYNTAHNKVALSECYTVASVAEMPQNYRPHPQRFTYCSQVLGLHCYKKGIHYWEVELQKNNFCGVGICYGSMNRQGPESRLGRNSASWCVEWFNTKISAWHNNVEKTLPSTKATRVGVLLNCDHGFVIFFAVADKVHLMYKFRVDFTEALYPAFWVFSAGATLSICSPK

Substance: myc-TRIM25 (tripartite motif containing 25) (from UniProt Q14258 1-630)
- binding [1]: binds
- binding [2]: binds
